# Measurements as given in patent publication US6610655B2 (Takeda Chemical Industries, Inc., priority 1994, dated 2003).
# Assay: general procedure: solution-phase peptide synthesis; DCC/HONB (ONB active esters); DCC/HOBt
# Conditions: for cyclisation yield: cyclisation step
Substance,step yield (coupling step),step yield (late stage modification step),other results
Boc-[dF]L[dW][dE](OBn)A-OPac,97.4%,,
Boc-[dA]E(OBn)W[dL]L-OH,,85.8%,
Boc-L[dW][dE](OBn)A-OPac,92.8%,,
Boc-E(OBn)W[dL]L-OPac,87.2%,,
cyclo([dE]A[dF]L[dW]),,,cyclisation yield (on linear precursor): 14.1%
Cyclo(-Trp-D-Leu-Leu-D-Ala-Glu(OBzl)-),,,cyclisation yield: 75.9%
Boc-[dA]E(OBn)W[dL]L-OPac,89.5%,,
Boc-[dF]L[dW][dE](OBn)A-OH,,93.6%,
Cyclo(-Trp-D-Leu-Leu-D-Ala-Glu-),,98.0%,

# [ ]: non-standard residue; d: D form. The star is where a group is joined. OPac = O=C(CO*)c1ccccc1; Boc = CC(C)(C)OC(=O)*; OBn = c1ccc(CO*)cc1
